In test [1] the target is eukaryotic translation elongation factor 1B gamma (eEF1Bγ) (human (endogenous in A549)) (UniProt P26641). The experiment in a line: co-IP; pre-cleared cytoplasmic extract of A549 cells; rabbit anti-eEF1Bγ antibodies (1.5 μg per 1 mg of total protein), Protein G Sepharose, 4°C; Western blot.
For test [2] the target is unchanged. The experiment in a line: co-IP; pre-cleared nuclear extract of A549 cells (nuclear lysis buffer with 0.42 M NaCl); rabbit anti-eEF1Bγ antibodies (1.5 μg per 1 mg of total protein), Protein G Sepharose, 4°C; Western blot.

Amino acid sequences for entries named in this document (tags omitted).
UniProt P26641: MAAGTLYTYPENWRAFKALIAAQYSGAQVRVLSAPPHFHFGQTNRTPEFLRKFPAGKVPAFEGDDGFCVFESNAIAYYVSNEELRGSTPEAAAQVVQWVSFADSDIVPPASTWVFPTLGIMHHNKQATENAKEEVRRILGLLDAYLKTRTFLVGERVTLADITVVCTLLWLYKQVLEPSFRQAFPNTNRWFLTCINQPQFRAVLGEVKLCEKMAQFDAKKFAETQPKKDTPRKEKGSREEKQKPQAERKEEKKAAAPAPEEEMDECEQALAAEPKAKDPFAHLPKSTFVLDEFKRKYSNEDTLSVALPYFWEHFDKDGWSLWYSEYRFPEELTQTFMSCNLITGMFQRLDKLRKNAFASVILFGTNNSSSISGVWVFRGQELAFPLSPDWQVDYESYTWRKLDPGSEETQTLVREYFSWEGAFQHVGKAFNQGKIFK
UniProt P29692: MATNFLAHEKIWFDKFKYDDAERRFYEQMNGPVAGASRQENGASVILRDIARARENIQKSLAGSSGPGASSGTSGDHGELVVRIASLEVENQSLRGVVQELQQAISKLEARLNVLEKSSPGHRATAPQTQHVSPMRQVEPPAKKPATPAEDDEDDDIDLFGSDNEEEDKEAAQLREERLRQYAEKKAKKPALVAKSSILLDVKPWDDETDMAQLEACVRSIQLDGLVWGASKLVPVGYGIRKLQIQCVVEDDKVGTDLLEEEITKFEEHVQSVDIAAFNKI

No constants are given. Whether binding was seen depends on the method and setting. In cells and extracts the contact can be indirect. Some binding calls cover weakened binding; strength is not graded here.

As to “eukaryotic translation elongation factor 1B beta (eEF1Bβ) (from UniProt P29692 1-281)”, the binding entry in test [1] and in test [2] was “binds” in each case.

B1: eukaryotic translation elongation factor 1B alpha (eEF1Bα) (protein, UniProt P24534 1-225)
chain: MGFGDLKSPAGLQVLNDYLADKSYIEGYVPSQADVAVFEAVSSPPPADLCHALRWYNHIKSYEKEKASLPGVKKALGKYGPADVEDTTGSGATDSKDDDDIDLFGSDDEEESEEAKRLREERLAQYESKKAKKPALVAKSSILLDVKPWDDETDMAKLEECVRSIQADGLVWGSSKLVPVGYGIKKLQIQCVVEDDKVGTDMLEEQITAFEDYVQSMDVAAFNKI
Regarding B1, the binding entry in test [1] and in test [2] was “binds” throughout.

The record behind these values is publication PMC4265501.
